In article PMC3425544, “The S100A10 Subunit of the Annexin A2 Heterotetramer Facilitates L2-Mediated Human Papillomavirus Infection” (PLoS ONE, 2012) one finds binding data, which are given here for 4 substances.

Amino acid sequences for entries named in this document (tags omitted). Residues count along the entry.
UniProt P03101: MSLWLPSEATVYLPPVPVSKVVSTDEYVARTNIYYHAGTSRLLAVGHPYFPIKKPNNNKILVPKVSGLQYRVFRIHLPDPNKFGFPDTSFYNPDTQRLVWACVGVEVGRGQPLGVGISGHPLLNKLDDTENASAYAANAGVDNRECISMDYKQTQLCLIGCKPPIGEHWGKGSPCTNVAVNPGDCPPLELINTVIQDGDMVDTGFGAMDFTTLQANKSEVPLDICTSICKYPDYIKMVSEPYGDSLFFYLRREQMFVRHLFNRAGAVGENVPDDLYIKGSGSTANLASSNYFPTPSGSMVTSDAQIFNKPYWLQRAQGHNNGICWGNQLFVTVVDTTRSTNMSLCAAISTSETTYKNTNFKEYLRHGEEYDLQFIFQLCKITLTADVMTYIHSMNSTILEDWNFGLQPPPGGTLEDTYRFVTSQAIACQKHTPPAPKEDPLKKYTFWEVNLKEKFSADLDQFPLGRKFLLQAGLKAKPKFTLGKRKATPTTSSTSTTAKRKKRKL
UniProt P07355: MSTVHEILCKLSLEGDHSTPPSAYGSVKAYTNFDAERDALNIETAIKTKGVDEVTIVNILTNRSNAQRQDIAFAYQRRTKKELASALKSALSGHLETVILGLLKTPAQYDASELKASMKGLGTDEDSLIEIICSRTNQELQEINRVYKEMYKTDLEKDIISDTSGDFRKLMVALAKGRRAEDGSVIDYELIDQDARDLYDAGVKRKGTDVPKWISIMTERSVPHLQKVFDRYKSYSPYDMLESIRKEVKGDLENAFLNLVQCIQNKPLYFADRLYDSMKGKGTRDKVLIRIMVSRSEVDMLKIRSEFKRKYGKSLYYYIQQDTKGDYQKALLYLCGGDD
UniProt P60903: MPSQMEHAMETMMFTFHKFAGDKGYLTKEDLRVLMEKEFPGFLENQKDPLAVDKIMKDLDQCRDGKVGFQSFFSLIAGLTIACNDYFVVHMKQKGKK
UniProt P03973, residues 26-132: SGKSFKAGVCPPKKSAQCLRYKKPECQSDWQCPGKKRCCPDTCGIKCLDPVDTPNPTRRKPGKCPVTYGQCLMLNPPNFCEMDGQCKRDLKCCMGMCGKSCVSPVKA

Test [1] addresses HPV16 L1L2 virus-like particles (human papillomavirus type 16) (UniProt P03101). Description: co-IP; HeLa cells incubated with 125 µg particles for 1 hour at 37°C, surface proteins cross-linked with 1.5 mM DTSSP, lysed (1% NP-40); particles precipitated with anti-L1 H16.V5 on Protein-G Dynabeads; Western blot for annexin A2 and S100A10; only the target purified. Background: In western blotting, separated proteins are transferred to a membrane and probed.

The target in test [2] is wildtype HPV16 pseudovirions (L1 and L2 capsid with a GFP reporter plasmid) (human papillomavirus type 16) (UniProt P03101). The description is as above.
Test [3] concerns the target HPV16 L1 virus-like particles (human papillomavirus type 16) (UniProt P03101). Described as above.
The target in test [4] is annexin A2 heterotetramer (A2t), purified human recombinant (human) (UniProt P07355). Description: ELISA; both purified. In general terms: An ELISA detects its analyte on a solid surface through an enzyme-linked reagent.
For test [5] the target is unchanged. In words: ELISA; 500 ng purified A2t coated overnight at 4°C, blocked with 10% casein; 400 ng PsV or rhu SLPI added; PsV detected with anti-L1 H16.V5, SLPI with goat anti-SLPI; absorbance at 490 nm; both purified.

No constants are given. Whether binding was seen depends on the method and setting. For some assays here: Binding seen in cells or lysates may run through a third protein. Some entries that bind do so weakly or less than the wild type.

On to “S100A10 on the surface of HeLa cells (from UniProt P60903 1-97)”, for which the binding result is reported as “binds” in test [1], “binds” in test [2] and “no binding” in test [3].

Regarding “annexin A2 on the surface of HeLa cells (from UniProt P07355 1-339)”, the binding result was “binds” in test [1], “binds” in test [2] and “no binding” in test [3].

As to “recombinant human secretory leukocyte protease inhibitor (from UniProt P03973 26-132)”, the binding result in test [4] is listed as “binds”.

In the case of “wildtype HPV16 pseudovirions (L1 and L2 capsid with a GFP reporter plasmid) (from UniProt P03101 1-505; P03107 1-473) (complex)”, the binding result in test [5] is reported as “binds”.
